From ChEMBL document CHEMBL3988442, “University of Dundee, Small-Polar-MMV Screening Library” (2021).

Chains of the proteins cited; added tags and fusions are not shown. Residues count along the entry.
UniProt Q8IDJ8, 1-583: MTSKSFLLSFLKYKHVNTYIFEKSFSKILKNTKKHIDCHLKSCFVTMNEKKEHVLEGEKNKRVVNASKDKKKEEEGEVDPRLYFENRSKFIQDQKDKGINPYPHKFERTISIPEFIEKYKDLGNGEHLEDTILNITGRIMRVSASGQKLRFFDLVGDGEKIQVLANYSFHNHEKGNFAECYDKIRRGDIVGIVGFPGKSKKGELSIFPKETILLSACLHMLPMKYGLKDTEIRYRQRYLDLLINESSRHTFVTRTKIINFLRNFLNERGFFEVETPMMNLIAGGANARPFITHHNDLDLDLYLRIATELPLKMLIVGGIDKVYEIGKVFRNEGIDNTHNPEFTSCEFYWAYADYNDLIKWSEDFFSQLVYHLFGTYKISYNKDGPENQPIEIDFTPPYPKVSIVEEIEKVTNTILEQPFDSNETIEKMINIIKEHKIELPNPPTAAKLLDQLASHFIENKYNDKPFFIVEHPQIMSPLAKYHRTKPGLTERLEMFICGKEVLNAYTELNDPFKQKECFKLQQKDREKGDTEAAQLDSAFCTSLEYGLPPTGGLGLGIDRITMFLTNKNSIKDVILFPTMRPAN
UniProt Q4DA54, 1-478: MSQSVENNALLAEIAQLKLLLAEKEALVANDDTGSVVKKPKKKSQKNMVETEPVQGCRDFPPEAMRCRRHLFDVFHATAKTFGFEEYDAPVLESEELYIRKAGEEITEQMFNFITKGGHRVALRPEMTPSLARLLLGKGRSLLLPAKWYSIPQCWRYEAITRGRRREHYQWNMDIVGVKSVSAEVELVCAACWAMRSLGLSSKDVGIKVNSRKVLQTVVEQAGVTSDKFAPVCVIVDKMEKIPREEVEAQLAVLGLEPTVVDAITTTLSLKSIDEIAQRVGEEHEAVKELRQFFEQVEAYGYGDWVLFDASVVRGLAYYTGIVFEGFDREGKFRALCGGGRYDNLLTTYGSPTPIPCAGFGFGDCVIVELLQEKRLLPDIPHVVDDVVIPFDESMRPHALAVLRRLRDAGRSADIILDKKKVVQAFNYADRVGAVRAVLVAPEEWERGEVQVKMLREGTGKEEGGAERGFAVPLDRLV

A: 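Cell assay of Leishmania donovani living inside macrophages; the read-out is not stated. Tested at 30 µM. Direction is inferred from retests: higher values go with stronger inhibition. About 69,000 compounds were tested under these conditions; 1.5% (about 1,000) showed 50% or more at least once.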
B: 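Whole-parasite assay of Trypanosoma brucei over 72 hours; the read-out is not stated. Compounds at 30 µM. Direction is inferred from retests: higher values go with stronger inhibition. Values scatter widely below zero; nearly all retest evidence comes from the higher of the two concentrations used. Of about 64,000 compounds tested this way, about 940 (1.5%) reached 50% or more in at least one test.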
C: 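Assay of Toxoplasma gondii numbers, read through their beta-galactosidase reporter with a colour substrate. Tested at 10 µM. The record gives no direction; the compounds picked for IC50 retests had high values, so higher reads as fewer parasites. Of about 67,000 compounds tested this way, about 260 (0.38%) reached 50% or more in at least one test.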
D: 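Enzyme assay of the cytosolic lysyl-tRNA synthetase in 384-well plates, read by luminescence. Target: Lysine-tRNA ligase, Plasmodium falciparum 3D7 (UniProt Q8IDJ8). Tested at 30 µM. Higher reads as stronger inhibition, judged from the few compounds that gave an IC50. Of about 69,000 compounds tested this way, about 49 (0.071%) reached 50% or more in at least one test.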
E: 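Histidine-tRNA ligase, Trypanosoma cruzi CL Brener (UniProt Q4DA54). Enzyme assay of histidyl-tRNA synthetase; the read-out is not stated. Concentration: 30 µM. The record gives no direction; compounds that gave an IC50 in retests scored well above the rest, so higher reads as stronger inhibition. About 69,000 compounds were tested under these conditions; 0.045% (about 31) showed 50% or more at least once.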

Values are the deposited “Percent Effect”, in %. How 0% and 100% were set is not recorded. Most values in the screen are low, and negative values occur. The compounds are a random part of those screened. Two or more numbers in one place are separate tests of the same structure; such repeats can differ widely. A dash means the value is not listed here; it may have been measured.

| compound | A | B | C | D | E |
|---|---|---|---|---|---|
| `COc1ccc(C)cc1CC(=O)NC1(C#N)CCOCC1` | -7.611 | -45.99 | 6.821 | -4.524 | 0 |
| `O=C(CO)N1CCC(c2ccnc(Nc3cc(C(F)(F)F)ccn3)n2)C1` (configuration not stated) | 30.85 | - | -15.37 | 3.875 | 6.391 |
| `O=C1NC2(CCNCC2)CC1c1cccnc1` (configuration not stated) | -2.576 | -7.22 | 0.05546 | 4.063 | 4.918 |
| `Cc1ccccc1NC(=O)CCNC(=O)c1ccoc1` | 11.39 | -20.37 | -12.2 | 5.751 | 0.5291 |
| `O=C(O)[C@]12CN(CC3CCC3)C[C@H]1CN(c1cnccn1)C2` | - | - | - | 0.1998 | 5.844 |
| `CN1CCN(c2ccc(NCc3ccc([S+](C)[O-])cc3)cn2)CC1` (configuration not stated) | 12.57 | -17.22 | -1.638 | 2.525 | 10.12 |
| `CNc1ccnc(N2CCCC(C(=O)c3ccccn3)C2)n1` (configuration not stated) | 3.306 | -11.01 | - | -0.6369 | 2.299 |
| `Cn1cc(CN2CCc3c(c(COCC#N)nn3C)C2)cn1` | 9.582 | -18.11 | -8.965 | 7.594 | 8.738 |
| `Cc1ccccc1CCNC(=O)CN1CCCC(Cn2cncn2)C1` (configuration not stated) | 18.24 | 18.07 | 12.83 | 1.549 | 17.51 |
| `Cc1cncnc1C1CCN(CC(N)=O)CC1` | 29.16 | - | - | 3.153 | 6.923 |
| `C/C=C(\C)CN1CCC2(CCC(=O)N2OCc2ccccc2F)CC1` | 0.9174 | 7.78 | -2.664 | 2.293 | 0 |
| `COc1cc(C)nc(N2CCN(C(=O)CCc3ccsc3)CC2)n1` | 23.01 | -25.82 | 12.84 | 4.637 | 2.062 |
| `CN(Cc1ccncc1)c1cncc(Br)c1` | 25.3 | -49.08 | -9.161 | 0.6545 | 6.468 |
| `COc1ccc(CN(C)[C@@H]2COC[C@H]2c2ccc(F)cc2)cc1` | - | - | - | 1.259 | 5.303 |
| `O=C(CCc1ccccc1F)N1CCC(Nc2cccnn2)CC1` | 25.54 | -10.38 | -9.764 | 0.5065 | 4.624 |
| `Cc1ccc(CN2CCCn3c(nc(CN4CCCC4)cc3=O)C2)s1` | - | - | - | 2.47 | 2.732 |
| `CNC(=O)CS(=O)(=O)C1CCN(S(=O)(=O)c2c(F)cccc2F)CC1` | 16.5 | -63.1 | 1.752 | -1.518 | 3.306 |
| `C[C@H]1C[C@@H]2CCN(CC3CCOCC3)C[C@H]2O1` | - | - | - | 2.023 | 3.448 |
| `CN(Cc1cccc(Cl)c1)Cc1nnsc1Cl` | 7.714 | 6.81 | 2.406 | 4.106 | 5.172 |
| `Cc1nn(CC(C)C)c(N(C)C)c1CNCCCNS(C)(=O)=O` | -28.43 | -70.42 | -15.09 | 5.078 | 7.514 |
| `Cc1cc(COC(=O)[C@@H]2Cc3ccccc3CN2S(C)(=O)=O)no1` | 12.34 | 77.9 | 13.04 | -5.927 | 5.217 |
| `O=C(Nc1cccnc1)[C@@H]1C[C@H]2OCC[C@H]2N(Cc2nccs2)C1` | - | - | - | 2.717 | 5.785 |
| `CNS(=O)(=O)CC(=O)N(C1CC1)C1Cc2ccccc2C1` | 22.35 | -2.212 | 3.172 | -0.2389 | 4.762 |
| `CNC(=O)[C@@H]1[C@@H](c2ccccc2)CN2CCN(Cc3ccco3)C[C@H]12` | - | - | - | 0.246 | -1.124 |
| `c1cncc(OCCCNC2COc3ccccc3C2)c1` (configuration not stated) | -3.427 | 9.009 | -4.439 | 6.427 | 1.493 |
| `Cc1cccc(OC2CCN(C(=O)CNC(=O)N(C)C)CC2)c1` | -26.51 | -15.96 | -4.734 | 1.626 | -1.622 |
| `COc1ccccc1CN(Cc1nc(C)no1)C1CC1` | -68.26 | -34.96 | -21.25 | 1.853 | 6.468 |
| `CC1CCCN1Cc1cccc(C(=O)Nc2ccc3[nH]c(=O)oc3c2)c1` (configuration not stated) | -16.9 | -14.17 | -2.182 | -0.35 | -3.933 |
| `Cc1cc(CN(C)C(=O)NCC(C)N2CCc3ccccc32)no1` (configuration not stated) | 17.31 | 1.465 | 0.5562 | 0.8449 | 1.901 |
| `Nc1nc(C2CCN(C(=O)c3cnco3)CC2)cs1` | -6.927 and 2.833 | 4.625 | 7.387 | 5.827 | 2.222 |
| `CCNc1ncc(C(=O)NC(CC)c2ccnn2C)cn1` (configuration not stated) | 30.14 | -18.72 | 9.32 | 3.758 | 8.173 |
| `COc1ccc2c(c1)OCC(CNC(=O)c1cnc(NC(C)C)nc1)C2` (configuration not stated) | 11.18 | -34.66 | -9.067 | -1.728 | -1.212 |
| `NC(=O)NC(=O)CCN1CCCC1c1cccc2c1OCCO2` (configuration not stated) | 10.11 | 11.03 | -0.5814 | 3.248 | 8.333 |
| `CCS(=O)(=O)c1ccccc1N1CCC(NC(C)=O)CC1` | 12.82 | 4.915 | 3.554 | 7.424 | 3.448 |
| `Cc1ccc(OCCCNC(=O)C2(C)CC(=O)N3C=CC=CC3=N2)cc1` (configuration not stated) | 24.53 | 6.546 | 1.769 | -0.08781 | 4.286 |
| `CNC(=O)CN1CCC(NC(=O)N(C)Cc2c(C)noc2C)CC1` | -5.786 | -1.13 | -33.26 | -3.139 | 4.399 |
| `Cc1ccccc1CN1C[C@@H](C(=O)N2CCCCO2)C[C@H]2OCC[C@H]21` | - | - | - | 2.127 | 11.76 |
| `Cc1cc(N2CCC(c3nnc(CN(C)C)n3C3CC3)CC2)ccn1` | 31.66 | -56.28 | -2.21 | -0.598 | 6.504 |
| `CCS(=O)(=O)c1ccccc1N1CCC(NC(=O)c2ccc[nH]2)CC1` | 18.72 | 54.24 | 23.91 | 2.292 | 0.3831 |
| `[H][C@]12CCCCN1CCC[C@H]2CN(C)Cc1cnn(C(C)C)c1` | 25.53 | -57.66 | 9.735 | - | - |
| `COc1ccc(C(=O)NC2CC2)c(OC2CCN(CCCSC)CC2)c1` | 17.58 | 3.372 | 4.909 | -0.1112 | 4.469 |
| `CS(=O)(=O)NC1CCN(C(=O)c2coc(CN3CCOCC3)c2)CC1` | 20.73 | -5.029 | 0.07396 | -1.405 | 2.632 |
| `Cc1nc(N2CCCC2)nc2c1CCN(Cc1ccoc1)CC2` | - | - | - | 2.804 | 7.609 |

For reference, 4 entries once more:

{"compound": "NC(=O)NC(=O)CCN1CCCC1c1cccc2c1OCCO2", "stereo": "configuration not stated", "A": 10.11, "B": 11.03, "C": -0.5814, "D": 3.248, "E": 8.333}
{"compound": "CNS(=O)(=O)CC(=O)N(C1CC1)C1Cc2ccccc2C1", "A": 22.35, "B": -2.212, "C": 3.172, "D": -0.2389, "E": 4.762}
{"compound": "Cc1ccc(OCCCNC(=O)C2(C)CC(=O)N3C=CC=CC3=N2)cc1", "stereo": "configuration not stated", "A": 24.53, "B": 6.546, "C": 1.769, "D": -0.08781, "E": 4.286}
{"compound": "Cc1cccc(OC2CCN(C(=O)CNC(=O)N(C)C)CC2)c1", "A": -26.51, "B": -15.96, "C": -4.734, "D": 1.626, "E": -1.622}